Test results reported in the supplement of paper PMC10849652.
The list shows a part of the results.

Sequences of proteins named here, by UniProt entry; tags and fusion partners are left off. A change or cut given only in a name is not applied to a line headed by its entry.
UniProt P07942: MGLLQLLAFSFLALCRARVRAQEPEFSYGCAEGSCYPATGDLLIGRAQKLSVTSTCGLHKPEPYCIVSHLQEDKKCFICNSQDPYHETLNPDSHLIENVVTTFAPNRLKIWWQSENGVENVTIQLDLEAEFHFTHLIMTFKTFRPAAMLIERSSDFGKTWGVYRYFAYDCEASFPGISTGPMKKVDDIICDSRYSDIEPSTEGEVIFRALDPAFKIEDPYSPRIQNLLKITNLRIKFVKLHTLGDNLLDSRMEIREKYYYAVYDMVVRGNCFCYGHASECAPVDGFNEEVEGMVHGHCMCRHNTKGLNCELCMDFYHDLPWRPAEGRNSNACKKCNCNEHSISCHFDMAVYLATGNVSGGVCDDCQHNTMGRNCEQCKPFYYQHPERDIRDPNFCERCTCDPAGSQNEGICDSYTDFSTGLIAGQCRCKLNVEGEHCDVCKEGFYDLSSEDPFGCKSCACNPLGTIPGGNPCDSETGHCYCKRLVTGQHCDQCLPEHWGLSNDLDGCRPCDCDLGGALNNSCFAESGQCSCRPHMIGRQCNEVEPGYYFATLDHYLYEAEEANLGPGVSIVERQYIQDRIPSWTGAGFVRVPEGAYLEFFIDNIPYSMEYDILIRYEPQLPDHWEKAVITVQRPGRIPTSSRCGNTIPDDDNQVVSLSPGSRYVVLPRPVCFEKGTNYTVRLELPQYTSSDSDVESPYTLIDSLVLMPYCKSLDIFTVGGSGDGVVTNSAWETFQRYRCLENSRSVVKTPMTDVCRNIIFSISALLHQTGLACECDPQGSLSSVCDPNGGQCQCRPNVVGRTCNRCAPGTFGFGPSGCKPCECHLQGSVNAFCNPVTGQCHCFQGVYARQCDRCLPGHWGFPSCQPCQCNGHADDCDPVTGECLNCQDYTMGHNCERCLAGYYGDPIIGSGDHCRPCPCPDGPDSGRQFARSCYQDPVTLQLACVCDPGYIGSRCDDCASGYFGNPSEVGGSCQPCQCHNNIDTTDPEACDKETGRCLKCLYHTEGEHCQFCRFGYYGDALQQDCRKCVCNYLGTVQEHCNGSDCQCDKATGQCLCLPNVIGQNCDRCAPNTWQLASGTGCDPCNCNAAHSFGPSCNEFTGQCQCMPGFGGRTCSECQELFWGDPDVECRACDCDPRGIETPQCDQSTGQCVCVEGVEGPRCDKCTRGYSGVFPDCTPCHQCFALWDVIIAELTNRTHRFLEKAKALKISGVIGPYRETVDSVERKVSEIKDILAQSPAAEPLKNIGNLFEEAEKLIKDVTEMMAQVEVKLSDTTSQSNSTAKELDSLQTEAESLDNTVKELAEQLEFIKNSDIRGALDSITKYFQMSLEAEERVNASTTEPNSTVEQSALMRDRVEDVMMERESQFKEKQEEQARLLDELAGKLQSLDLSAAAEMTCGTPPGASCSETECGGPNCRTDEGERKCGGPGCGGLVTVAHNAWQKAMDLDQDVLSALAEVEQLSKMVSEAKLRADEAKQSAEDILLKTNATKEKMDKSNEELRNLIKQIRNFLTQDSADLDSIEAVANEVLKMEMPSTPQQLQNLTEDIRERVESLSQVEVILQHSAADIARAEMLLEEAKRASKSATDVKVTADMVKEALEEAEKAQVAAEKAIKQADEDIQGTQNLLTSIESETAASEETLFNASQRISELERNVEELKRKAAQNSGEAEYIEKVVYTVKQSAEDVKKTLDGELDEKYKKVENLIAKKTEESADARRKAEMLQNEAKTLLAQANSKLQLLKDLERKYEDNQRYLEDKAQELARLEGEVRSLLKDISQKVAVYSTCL
UniProt O94953: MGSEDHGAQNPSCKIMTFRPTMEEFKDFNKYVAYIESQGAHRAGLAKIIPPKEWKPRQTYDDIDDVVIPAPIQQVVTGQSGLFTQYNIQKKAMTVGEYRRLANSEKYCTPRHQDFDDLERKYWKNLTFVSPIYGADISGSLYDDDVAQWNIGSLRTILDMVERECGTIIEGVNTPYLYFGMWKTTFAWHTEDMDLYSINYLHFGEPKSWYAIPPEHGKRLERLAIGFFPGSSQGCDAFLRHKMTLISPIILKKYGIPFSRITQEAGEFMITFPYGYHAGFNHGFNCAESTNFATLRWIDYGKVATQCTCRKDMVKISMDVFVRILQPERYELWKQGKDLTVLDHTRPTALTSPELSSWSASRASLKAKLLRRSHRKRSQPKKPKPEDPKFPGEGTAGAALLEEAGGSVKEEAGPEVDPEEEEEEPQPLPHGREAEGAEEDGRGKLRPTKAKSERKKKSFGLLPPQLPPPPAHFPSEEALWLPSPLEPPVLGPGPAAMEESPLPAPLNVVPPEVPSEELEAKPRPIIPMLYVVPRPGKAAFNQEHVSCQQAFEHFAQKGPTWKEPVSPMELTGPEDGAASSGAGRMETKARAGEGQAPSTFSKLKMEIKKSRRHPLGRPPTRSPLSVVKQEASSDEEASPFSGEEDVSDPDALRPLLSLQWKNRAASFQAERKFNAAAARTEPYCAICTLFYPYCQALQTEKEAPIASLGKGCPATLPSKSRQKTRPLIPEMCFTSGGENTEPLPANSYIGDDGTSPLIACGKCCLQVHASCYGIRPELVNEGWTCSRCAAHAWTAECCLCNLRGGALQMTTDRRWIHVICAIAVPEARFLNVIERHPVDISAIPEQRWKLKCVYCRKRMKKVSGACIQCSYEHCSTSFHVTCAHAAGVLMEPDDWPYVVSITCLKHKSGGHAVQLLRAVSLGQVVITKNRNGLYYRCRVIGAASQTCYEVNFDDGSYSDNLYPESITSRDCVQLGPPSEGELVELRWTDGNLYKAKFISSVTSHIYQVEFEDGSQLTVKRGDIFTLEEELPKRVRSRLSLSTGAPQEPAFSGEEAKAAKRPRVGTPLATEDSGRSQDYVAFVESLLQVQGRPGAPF
UniProt Q71RC2, whole entry, looked up: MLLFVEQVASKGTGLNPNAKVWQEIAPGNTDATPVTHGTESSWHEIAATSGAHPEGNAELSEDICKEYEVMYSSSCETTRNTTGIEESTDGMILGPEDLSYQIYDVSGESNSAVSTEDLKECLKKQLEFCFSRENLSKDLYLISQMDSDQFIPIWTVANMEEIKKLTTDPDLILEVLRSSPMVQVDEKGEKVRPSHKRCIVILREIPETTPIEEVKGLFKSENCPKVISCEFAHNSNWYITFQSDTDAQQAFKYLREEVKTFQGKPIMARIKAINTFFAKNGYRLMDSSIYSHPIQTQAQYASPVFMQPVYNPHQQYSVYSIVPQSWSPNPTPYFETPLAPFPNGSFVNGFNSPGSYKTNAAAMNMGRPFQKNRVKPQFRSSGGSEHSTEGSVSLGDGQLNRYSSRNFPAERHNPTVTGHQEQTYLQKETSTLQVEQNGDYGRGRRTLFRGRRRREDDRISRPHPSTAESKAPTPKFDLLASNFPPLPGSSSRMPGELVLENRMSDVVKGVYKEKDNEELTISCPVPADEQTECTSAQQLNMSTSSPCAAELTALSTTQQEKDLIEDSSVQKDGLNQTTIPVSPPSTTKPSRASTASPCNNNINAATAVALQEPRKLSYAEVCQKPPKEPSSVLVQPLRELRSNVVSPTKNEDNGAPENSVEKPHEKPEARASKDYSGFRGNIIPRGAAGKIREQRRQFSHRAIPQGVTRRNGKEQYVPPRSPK
UniProt Q7Z4S6: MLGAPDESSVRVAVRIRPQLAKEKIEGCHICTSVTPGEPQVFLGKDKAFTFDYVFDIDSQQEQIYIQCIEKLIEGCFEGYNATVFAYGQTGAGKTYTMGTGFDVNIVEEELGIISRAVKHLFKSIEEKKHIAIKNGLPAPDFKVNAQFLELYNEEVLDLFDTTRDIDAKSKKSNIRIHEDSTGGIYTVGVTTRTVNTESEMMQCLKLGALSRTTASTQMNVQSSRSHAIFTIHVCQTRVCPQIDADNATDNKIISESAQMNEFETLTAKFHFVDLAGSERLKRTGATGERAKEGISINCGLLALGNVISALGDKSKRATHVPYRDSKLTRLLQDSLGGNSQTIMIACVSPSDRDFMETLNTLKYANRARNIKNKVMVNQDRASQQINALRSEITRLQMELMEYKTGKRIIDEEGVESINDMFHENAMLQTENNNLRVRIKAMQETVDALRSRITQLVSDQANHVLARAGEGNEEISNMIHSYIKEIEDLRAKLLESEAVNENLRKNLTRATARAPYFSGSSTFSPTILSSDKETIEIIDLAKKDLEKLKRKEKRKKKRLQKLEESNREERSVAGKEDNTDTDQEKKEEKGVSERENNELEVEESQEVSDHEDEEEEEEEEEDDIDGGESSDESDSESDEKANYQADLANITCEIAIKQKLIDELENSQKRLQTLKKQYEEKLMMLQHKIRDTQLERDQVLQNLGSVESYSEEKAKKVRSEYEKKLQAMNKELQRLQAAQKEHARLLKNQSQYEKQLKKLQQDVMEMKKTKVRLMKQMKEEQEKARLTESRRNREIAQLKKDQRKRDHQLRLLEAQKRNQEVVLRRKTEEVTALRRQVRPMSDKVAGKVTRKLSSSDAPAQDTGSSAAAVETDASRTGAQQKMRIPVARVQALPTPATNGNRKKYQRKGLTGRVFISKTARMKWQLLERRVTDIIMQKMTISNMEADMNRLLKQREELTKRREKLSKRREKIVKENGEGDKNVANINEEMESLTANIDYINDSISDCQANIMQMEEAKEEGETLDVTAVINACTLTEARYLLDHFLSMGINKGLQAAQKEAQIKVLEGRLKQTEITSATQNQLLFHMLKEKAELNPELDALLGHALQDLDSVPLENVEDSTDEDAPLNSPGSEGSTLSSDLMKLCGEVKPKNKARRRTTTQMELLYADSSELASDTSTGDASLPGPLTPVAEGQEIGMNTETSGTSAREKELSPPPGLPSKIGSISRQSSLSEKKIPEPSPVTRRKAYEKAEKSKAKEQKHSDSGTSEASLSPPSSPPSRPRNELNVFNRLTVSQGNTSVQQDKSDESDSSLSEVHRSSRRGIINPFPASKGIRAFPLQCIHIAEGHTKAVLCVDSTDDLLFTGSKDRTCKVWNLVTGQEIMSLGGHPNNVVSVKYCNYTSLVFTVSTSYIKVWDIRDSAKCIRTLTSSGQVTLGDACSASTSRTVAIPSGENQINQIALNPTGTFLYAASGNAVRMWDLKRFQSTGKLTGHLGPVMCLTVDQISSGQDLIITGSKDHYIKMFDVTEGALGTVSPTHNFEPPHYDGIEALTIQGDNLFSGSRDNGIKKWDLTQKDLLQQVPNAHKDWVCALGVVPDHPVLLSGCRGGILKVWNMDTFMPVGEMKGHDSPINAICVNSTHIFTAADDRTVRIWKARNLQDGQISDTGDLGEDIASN
UniProt Q1ED39: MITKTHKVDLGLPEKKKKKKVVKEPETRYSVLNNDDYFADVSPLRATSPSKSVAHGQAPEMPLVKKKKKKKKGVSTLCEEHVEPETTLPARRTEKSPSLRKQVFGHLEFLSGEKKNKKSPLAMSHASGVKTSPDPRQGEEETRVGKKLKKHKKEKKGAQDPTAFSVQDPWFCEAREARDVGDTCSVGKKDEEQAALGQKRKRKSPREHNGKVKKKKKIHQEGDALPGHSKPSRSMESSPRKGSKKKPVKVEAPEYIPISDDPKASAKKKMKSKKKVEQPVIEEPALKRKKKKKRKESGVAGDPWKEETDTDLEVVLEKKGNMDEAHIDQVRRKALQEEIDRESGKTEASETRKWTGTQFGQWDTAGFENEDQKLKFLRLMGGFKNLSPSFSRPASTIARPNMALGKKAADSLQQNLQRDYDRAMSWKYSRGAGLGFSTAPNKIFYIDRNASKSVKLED
UniProt Q13601: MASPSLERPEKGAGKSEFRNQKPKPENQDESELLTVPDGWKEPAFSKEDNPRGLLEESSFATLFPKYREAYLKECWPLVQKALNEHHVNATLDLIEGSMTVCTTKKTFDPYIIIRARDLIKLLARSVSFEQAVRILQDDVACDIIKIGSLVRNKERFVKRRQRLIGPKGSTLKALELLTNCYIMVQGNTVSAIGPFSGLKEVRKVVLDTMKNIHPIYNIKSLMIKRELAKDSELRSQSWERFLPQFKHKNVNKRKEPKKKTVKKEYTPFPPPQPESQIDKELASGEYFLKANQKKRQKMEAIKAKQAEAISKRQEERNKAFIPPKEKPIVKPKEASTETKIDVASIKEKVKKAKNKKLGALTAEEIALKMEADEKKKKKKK
UniProt Q8N6L1: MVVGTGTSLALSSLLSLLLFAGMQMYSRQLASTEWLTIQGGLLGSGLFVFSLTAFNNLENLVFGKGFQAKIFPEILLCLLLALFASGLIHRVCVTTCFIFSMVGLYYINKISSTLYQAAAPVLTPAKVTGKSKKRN
UniProt Q96AT1: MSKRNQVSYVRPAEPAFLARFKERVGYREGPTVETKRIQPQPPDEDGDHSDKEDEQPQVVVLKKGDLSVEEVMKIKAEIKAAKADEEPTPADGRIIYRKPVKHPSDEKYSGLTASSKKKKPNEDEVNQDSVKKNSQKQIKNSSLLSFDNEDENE

compound: O=C(CCCCCCC(=O)Nc1ccccc1)NO [vorinostat]; assay: log2 fold change, soluble protein after heating vs DMSO (PISA); higher = thermal stabilisation; K562 lysate, 10 uM; active = over 0.2 and 3.5 SD of the protein, either way, in both replicates (recomputed)
How it was run: (§1)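 K562 pellets were dounce-homogenised in PBS pH 7.4 with 1 mM MgCl2, and the crude extract at 1 mg/mL protein was treated with 10 μM compound for 30 min. Aliquots were heated for 3 min across 48°C-58°C, pooled, and brought to 0.5% NP-40 at 4°C; soluble protein was the supernatant after 21,000xg for 90 min. Soluble protein was quantified by TMTpro 16plex LC-MS/MS with channel sums equalised, and reported as log2 fold change in thermal stability against DMSO controls, with values from duplicates.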

| Target | log2 fold change |
| --- | --- |
| LARP4B (UniProt Q92615) | active: -0.306 |
| KIAA1522 isoform 2 (UniProt Q9P206) | inactive: -0.144 |
| KIF16B isoform 2 (UniProt Q96L93) | inactive: -0.113 |
| KTN1 (UniProt Q86UP2) | inactive: 0.013 |
| KIF15 (UniProt Q9NS87) | inactive: -0.136 |
| LANCL2 (UniProt Q9NS86) | inactive: -0.029 |
| KLHL7 (UniProt Q8IXQ5) | inactive: -0.14 |
| KLC2 (UniProt Q9H0B6) | active: -0.348 |
| KDM8 isoform 3 (UniProt Q8N371) | inactive: -0.074 |
| LARP1B, A0A3B3ISF0 | inactive: 0.016 |
| LAMB1 (UniProt P07942) | inactive: 0.086 |
| KIF23 isoform 2 (UniProt Q02241) | inactive: -0.111 |
| LAMTOR5 (UniProt O43504) | inactive: 0.117 |
| KDM4B (UniProt O94953) | inactive: -0.213 |
| KNSTRN (UniProt Q9Y448) | inactive: -0.054 |
| KEL (UniProt P23276) | inactive: 0.162 |
| KIF5B (UniProt P33176) | inactive: -0.114 |
| KIAA1191 (UniProt Q96A73) | inactive: 0.032 |
| KMT2E (UniProt Q8IZD2) | inactive: -0.139 |
| LARP4 isoform 4 (UniProt Q71RC2) | inactive: -0.1 |

| Target | log2 fold change |
| --- | --- |
| KLHDC4 (UniProt Q8TBB5) | inactive: -0.086 |
| KRAS (UniProt P01116) | inactive: 0.129 |
| L2HGDH (UniProt Q9H9P8) | inactive: 0.233 |
| KIF1C (UniProt O43896) | inactive: -0.508 |
| LAMP1 (UniProt P11279) | inactive: 0.095 |
| KDM5B isoform 2 (UniProt Q9UGL1) | inactive: 0.085 |
| KIF13A isoform 4 (UniProt Q9H1H9) | inactive: 0.033 |
| KHK isoform 2 (UniProt P50053) | inactive: 0.045 |
| KPTN (UniProt Q9Y664) | inactive: -0.03 |
| KPNA2 (UniProt P52292) | active: -0.376 |
| KLC4 isoform 3 (UniProt Q9NSK0) | active: -0.557 |
| KIF21A isoform 5 (UniProt Q7Z4S6) | active: -0.239 |
| KNOP1 (UniProt Q1ED39) | inactive: 0.063 |
| KIF11 (UniProt P52732) | active: -0.252 |
| KIDINS220 isoform 4 (UniProt Q9ULH0) | inactive: -0.111 |
| KRR1 (UniProt Q13601) | inactive: 0.02 |
| KRIT1 (UniProt O00522) | inactive: -0.046 |
| KRTCAP2 isoform 2 (UniProt Q8N6L1) | inactive: 0.139 |
| KIAA1143 (UniProt Q96AT1) | inactive: 0.146 |

compound: O=C(O)c1ccc2c(c1)nc(Nc1cccc(Cl)c1)c1ccncc12 [silmitasertib]; assay: as above
How it was run: as §1

| Target | log2 fold change |
| --- | --- |
| LARP4B (UniProt Q92615) | inactive: 0.032 |
| KIAA1522 isoform 2 (UniProt Q9P206) | inactive: -0.01 |
| KIF16B isoform 2 (UniProt Q96L93) | inactive: 0.131 |
| KTN1 (UniProt Q86UP2) | inactive: -0.001 |
| KIF15 (UniProt Q9NS87) | inactive: 0.02 |
| LANCL2 (UniProt Q9NS86) | inactive: -0.018 |
| KLHL7 (UniProt Q8IXQ5) | inactive: -0.039 |
| KLC2 (UniProt Q9H0B6) | inactive: -0.005 |
| KDM8 isoform 3 (UniProt Q8N371) | inactive: -0.069 |
| LARP1B, A0A3B3ISF0 | inactive: 0.005 |
| LAMB1 (UniProt P07942) | inactive: -0.016 |
| KIF23 isoform 2 (UniProt Q02241) | inactive: -0.015 |
| LAMTOR5 (UniProt O43504) | inactive: -0.05 |
| KDM4B (UniProt O94953) | inactive: 0.062 |
| KNSTRN (UniProt Q9Y448) | inactive: 0 |
| KEL (UniProt P23276) | inactive: -0.002 |
| KIF5B (UniProt P33176) | inactive: -0.009 |
| KIAA1191 (UniProt Q96A73) | inactive: -0.028 |
| KMT2E (UniProt Q8IZD2) | inactive: -0.053 |
| LARP4 isoform 4 (UniProt Q71RC2) | inactive: 0.02 |

| Target | log2 fold change |
| --- | --- |
| KLHDC4 (UniProt Q8TBB5) | inactive: -0.029 |
| KRAS (UniProt P01116) | inactive: 0.022 |
| L2HGDH (UniProt Q9H9P8) | inactive: -0.019 |
| KIF1C (UniProt O43896) | inactive: 0.083 |
| LAMP1 (UniProt P11279) | inactive: -0.009 |
| KDM5B isoform 2 (UniProt Q9UGL1) | inactive: -0.018 |
| KIF13A isoform 4 (UniProt Q9H1H9) | inactive: -0.013 |
| KHK isoform 2 (UniProt P50053) | inactive: 0.018 |
| KPTN (UniProt Q9Y664) | inactive: 0 |
| KPNA2 (UniProt P52292) | inactive: 0.018 |
| KLC4 isoform 3 (UniProt Q9NSK0) | inactive: 0.009 |
| KIF21A isoform 5 (UniProt Q7Z4S6) | inactive: -0.004 |
| KNOP1 (UniProt Q1ED39) | inactive: 0.005 |
| KIF11 (UniProt P52732) | inactive: 0.016 |
| KIDINS220 isoform 4 (UniProt Q9ULH0) | inactive: 0.023 |
| KRR1 (UniProt Q13601) | inactive: 0.013 |
| KRIT1 (UniProt O00522) | inactive: -0.013 |
| KRTCAP2 isoform 2 (UniProt Q8N6L1) | inactive: -0.034 |
| KIAA1143 (UniProt Q96AT1) | inactive: -0.05 |
